Laboratory results reported in paper PMC10739811.
Results are given in words; binding and its absence hold for the method and conditions named. Binding seen in cells or lysates may run through a third protein. Some entries that bind do so weakly or less than the wild type. For part of these data: Tags and fused reporters may be left off the sequences shown.

Protein sequences, listed by entry. Tags and fused reporters are not part of them.
UniProt P97302: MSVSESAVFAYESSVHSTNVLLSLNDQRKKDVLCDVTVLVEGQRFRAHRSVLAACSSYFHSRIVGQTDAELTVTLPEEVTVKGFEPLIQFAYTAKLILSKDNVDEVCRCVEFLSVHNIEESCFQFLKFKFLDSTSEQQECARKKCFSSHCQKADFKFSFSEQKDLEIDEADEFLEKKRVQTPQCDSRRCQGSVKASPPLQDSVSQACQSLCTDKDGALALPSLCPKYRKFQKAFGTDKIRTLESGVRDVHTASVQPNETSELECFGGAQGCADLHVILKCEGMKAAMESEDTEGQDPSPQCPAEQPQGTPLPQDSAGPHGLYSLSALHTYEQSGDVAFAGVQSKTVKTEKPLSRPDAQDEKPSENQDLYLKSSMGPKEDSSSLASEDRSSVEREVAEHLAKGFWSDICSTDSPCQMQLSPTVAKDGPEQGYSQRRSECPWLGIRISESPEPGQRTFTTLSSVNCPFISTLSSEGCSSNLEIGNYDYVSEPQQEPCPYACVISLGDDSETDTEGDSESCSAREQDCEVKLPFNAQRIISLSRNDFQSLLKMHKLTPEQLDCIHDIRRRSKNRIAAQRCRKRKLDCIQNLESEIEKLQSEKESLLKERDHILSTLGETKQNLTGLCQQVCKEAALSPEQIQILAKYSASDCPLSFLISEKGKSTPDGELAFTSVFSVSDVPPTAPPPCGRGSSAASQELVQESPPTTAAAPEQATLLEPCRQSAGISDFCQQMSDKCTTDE
UniProt O14867: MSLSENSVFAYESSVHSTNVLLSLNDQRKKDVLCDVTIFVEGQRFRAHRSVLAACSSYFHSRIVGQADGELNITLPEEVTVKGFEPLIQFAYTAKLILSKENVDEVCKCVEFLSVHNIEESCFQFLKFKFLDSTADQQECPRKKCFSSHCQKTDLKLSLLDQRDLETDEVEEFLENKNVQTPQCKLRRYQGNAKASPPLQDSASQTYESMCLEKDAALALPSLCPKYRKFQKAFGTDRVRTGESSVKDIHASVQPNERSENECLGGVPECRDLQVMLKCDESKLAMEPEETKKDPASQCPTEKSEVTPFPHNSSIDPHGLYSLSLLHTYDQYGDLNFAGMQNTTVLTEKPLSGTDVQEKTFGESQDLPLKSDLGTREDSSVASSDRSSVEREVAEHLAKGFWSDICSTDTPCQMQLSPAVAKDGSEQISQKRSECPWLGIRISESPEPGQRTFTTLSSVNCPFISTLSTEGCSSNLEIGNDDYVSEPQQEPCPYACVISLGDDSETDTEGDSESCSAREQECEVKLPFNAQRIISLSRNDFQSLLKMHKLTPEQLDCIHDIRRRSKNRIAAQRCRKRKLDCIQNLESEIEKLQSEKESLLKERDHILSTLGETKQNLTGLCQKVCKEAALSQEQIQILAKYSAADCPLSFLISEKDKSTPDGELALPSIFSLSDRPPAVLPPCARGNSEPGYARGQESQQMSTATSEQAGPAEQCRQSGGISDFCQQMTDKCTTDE

What was measured:
[1] = molecular target: BTB and CNC homology 1 (BACH1), endogenous mouse (mouse (endogenous in primary hepatocytes)) (UniProt P97302); test: co-IP; lysate of mouse primary hepatocytes precipitated with anti-BACH1 antibody or control mouse IgG; blots for IR-β, PTP1B, PTEN, PP2A and BACH1; endogenous proteins
[2] = molecular target: GST-tagged BACH1 protein (GST-BACH1) (not stated (human or mouse cDNA cloned)) (UniProt O14867); test: pull-down; GST-BACH1 on glutathione-Sepharose 4B incubated for 2 h at 4 °C with IR-β-GFP or PTP1B-HA from transfected HEK293T cells (lysate by the legend and results; 'purified' by the methods), three washes, blot; only the target purified
[3] = molecular target: Flag-tagged full-length human BACH1 (human) (UniProt O14867); test: co-IP; HEK293T cells co-transfected with PTP1B-HA or IR-β-GFP and Flag-tagged BACH1 (full or lacking the BTB domain); precipitated with anti-Flag, blot with anti-HA or anti-GFP

| binding [1] | Binder | binding [2] | binding [3] |
| --- | --- | --- | --- |
| binds | protein tyrosine phosphatase 1B (PTP1B), endogenous mouse (enzyme, UniProt P35821 1-432) MEMEKEFEEIDKAGNWAAIYQDIRHEASDFPCKVAKLPKNKNRNRYRDVSPFDHSRIKLHQEDNDYINASLIKMEEAQRSYILTQGPLPNTCGHFWEMVWEQKSRGVVMLNRIMEKGSLKCAQYWPQQEEKEMVFDDTGLKLTLISEDVKSYYTVRQLELENLTTKETREILHFHYTTWPDFGVPESPASFLNFLFKVRESGSLSLEHGPIVVHCSAGIGRSGTFCLADTCLLLMDKRKDPSSVDIKKVLLEMRRFRMGLIQTADQLRFSYLAVIEGAKFIMGDSSVQDQWKELSREDLDLPPEHVPPPPRPPKRTLEPHNGKCKELFSSHQWVSEETCGDEDSLAREEGRAQSSAMHSVSSMSPDTEVRRRMVGGGLQSAQASVPTEEELSSTEEEHKAHWPSHWKPFLVNVCMATLLATGAYLCYRVCFH |  |  |
|  | human PTP1B-HA (enzyme, UniProt P18031 1-435) MEMEKEFEQIDKSGSWAAIYQDIRHEASDFPCRVAKLPKNKNRNRYRDVSPFDHSRIKLHQEDNDYINASLIKMEEAQRSYILTQGPLPNTCGHFWEMVWEQKSRGVVMLNRVMEKGSLKCAQYWPQKEEKEMIFEDTNLKLTLISEDIKSYYTVRQLELENLTTQETREILHFHYTTWPDFGVPESPASFLNFLFKVRESGSLSPEHGPVVVHCSAGIGRSGTFCLADTCLLLMDKRKDPSSVDIKKVLLEMRKFRMGLIQTADQLRFSYLAVIEGAKFIMGDSSVQDQWKELSHEDLEPPPEHIPPPPRPPKRILEPHNGKCREFFPNHQWVKEETQEDKDCPIKEEKGSPLNAAPYGIESMSQDTEVRSRVVGGSLRGAQAASPAKGEPSLPEKDEDHALSYWKPFLVNMCVATVLTAGAYLCYRFLFNSNT | binds | binds |
